No constants are given. Whether binding was seen depends on the method and setting. For some assays here: Binding seen in cells or lysates may run through a third protein. Some entries that bind do so weakly or less than the wild type.

Amino acid sequences for entries named in this document (tags omitted).
UniProt P06730: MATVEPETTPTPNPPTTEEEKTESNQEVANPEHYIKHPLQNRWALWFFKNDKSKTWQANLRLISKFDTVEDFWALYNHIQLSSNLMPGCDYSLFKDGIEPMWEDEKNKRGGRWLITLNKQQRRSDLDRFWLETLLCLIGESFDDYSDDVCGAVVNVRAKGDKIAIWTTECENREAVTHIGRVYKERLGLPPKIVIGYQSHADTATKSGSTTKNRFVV
UniProt P0DMB2: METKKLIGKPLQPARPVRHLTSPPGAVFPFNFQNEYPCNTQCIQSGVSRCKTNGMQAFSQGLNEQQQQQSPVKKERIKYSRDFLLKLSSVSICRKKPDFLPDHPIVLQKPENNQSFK

Drawing on publication PMC10670996, this text covers binding for 5 substances.

Experiment [1] concerns the target Endogenous eIF4E (human (endogenous in HEK293T)) (UniProt P06730). The experiment can be described thus: pull-down; m7GTP cap-affinity chromatography of lysates (NP40 lysis buffer) of transfected HEK293T; LCB washes, 500 µM GTP washes, eluted with 500 µM m7GTP; blots anti-DDDDK and anti-eIF4E.
The target in experiment [2] is Flag-C8ORF88 (HEK293T) (not stated (human or mouse cDNA cloned)) (UniProt P0DMB2). The experiment in a line: co-IP; lysates (NP40 lysis buffer) of transfected HEK293T, 24 h post-transfection; anti-FLAG M2 magnetic beads 1 h on ice, 5 washes; blots anti-DDDDK and anti-eIF4E.
Experiment [3] deals with His-eIF4E (UniProt P06730). The experiment can be described thus: pull-down; cap-pulldown on m7GTP agarose of recombinant His-eIF4E (2.5 µg) with GST protein (0.5 µg) in 50 µL LCB Buffer, 1 h RT, then resin, GTP washes, m7GTP elution; blots anti-GST and anti-His (Figure S2); both purified.
Experiment [4] deals with GST-C8ORF88 (not stated (human or mouse cDNA cloned)) (UniProt P0DMB2). The experiment in a line: pull-down; GST pulldown: 2.5 µg GST protein with 0.5 µg His-eIF4E or His-eIF4E(W73A) in 50 µL Binding Buffer (20 mM Tris pH 7.5, 100 mM KCl, 10% glycerol, 0.1% NP-40), 1 h room temperature; Glutathione Sepharose 1 h on ice; eluted with 10 mM reduced glutathione; blots anti-GST and anti-His; both purified.

Experiment [5] addresses eIF4E (in vitro translated) (UniProt P06730). The experiment in a line: pull-down; m7GTP cap-affinity chromatography of wheat germ translations ([35S]-methionine; each mRNA co-translated with eIF4E mRNA); resin 2 h 4 °C, LCB Buffer (20 mM Hepes pH 7.5, 0.1 M KCl, 0.2 mM EDTA) washes, 500 µM GTP washes, eluted with 500 µM m7GTP; autoradiography.

In the case of “Flag-C8ORF88 (HEK293T) (from UniProt P0DMB2 1-117)”, in experiment [1], the binding entry was “binds”.
As to “Endogenous eIF4E (from UniProt P06730 1-217)”, the binding entry in experiment [2] was “binds”.
Take GST-C8ORF88 (from UniProt P0DMB2 1-117): the binding entry in experiment [3] is on record as “binds”.
For the substance His-eIF4E (from UniProt P06730 1-217), in experiment [4], the binding result is listed as “binds”.
Regarding “Flag-C8ORF88 (in vitro translated) (from UniProt P0DMB2 1-117)”, the binding result in experiment [5] is “binds”.
